Measured values as given in paper doi:10.1101/2025.07.20.665809 (bioRxiv, 2025).

Sequences of proteins named here, by UniProt entry; tags and fusion partners are left off.
UniProt Q16643: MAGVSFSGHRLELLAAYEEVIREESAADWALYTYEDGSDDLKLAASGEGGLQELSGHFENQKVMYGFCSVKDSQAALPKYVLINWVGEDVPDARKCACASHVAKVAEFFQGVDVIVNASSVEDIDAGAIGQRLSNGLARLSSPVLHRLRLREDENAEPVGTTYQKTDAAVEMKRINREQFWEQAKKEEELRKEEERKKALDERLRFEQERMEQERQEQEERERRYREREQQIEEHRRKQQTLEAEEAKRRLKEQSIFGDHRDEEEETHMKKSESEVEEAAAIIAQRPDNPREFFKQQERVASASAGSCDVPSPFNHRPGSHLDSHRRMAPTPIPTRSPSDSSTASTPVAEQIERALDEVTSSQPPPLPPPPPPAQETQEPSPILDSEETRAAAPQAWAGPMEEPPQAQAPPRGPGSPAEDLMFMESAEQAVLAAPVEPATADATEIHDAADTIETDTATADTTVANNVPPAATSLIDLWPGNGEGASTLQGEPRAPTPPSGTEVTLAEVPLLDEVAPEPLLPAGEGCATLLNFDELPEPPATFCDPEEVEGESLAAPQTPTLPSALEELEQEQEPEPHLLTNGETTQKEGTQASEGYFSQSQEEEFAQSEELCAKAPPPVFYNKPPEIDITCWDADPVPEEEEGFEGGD
UniProt P04792: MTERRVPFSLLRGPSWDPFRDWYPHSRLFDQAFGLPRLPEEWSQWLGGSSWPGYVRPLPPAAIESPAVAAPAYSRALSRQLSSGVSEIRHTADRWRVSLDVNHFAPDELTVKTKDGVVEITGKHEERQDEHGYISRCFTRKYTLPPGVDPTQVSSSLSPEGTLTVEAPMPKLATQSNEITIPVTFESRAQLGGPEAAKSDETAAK

B1: Upf1 (protein, UniProt Q92900 1-1129)
chain: MSVEAYGPSSQTLTFLDTEEAELLGADTQGSEFEFTDFTLPSQTQTPPGGPGGPGGGGAGGPGGAGAGAAAGQLDAQVGPEGILQNGAVDDSVAKTSQLLAELNFEEDEEDTYYTKDLPIHACSYCGIHDPACVVYCNTSKKWFCNGRGNTSGSHIVNHLVRAKCKEVTLHKDGPLGETVLECYNCGCRNVFLLGFIPAKADSVVVLLCRQPCASQSSLKDINWDSSQWQPLIQDRCFLSWLVKIPSEQEQLRARQITAQQINKLEELWKENPSATLEDLEKPGVDEEPQHVLLRYEDAYQYQNIFGPLVKLEADYDKKLKESQTQDNITVRWDLGLNKKRIAYFTLPKTDSGNEDLVIIWLRDMRLMQGDEICLRYKGDLAPLWKGIGHVIKVPDNYGDEIAIELRSSVGAPVEVTHNFQVDFVWKSTSFDRMQSALKTFAVDETSVSGYIYHKLLGHEVEDVIIKCQLPKRFTAQGLPDLNHSQVYAVKTVLQRPLSLIQGPPGTGKTVTSATIVYHLARQGNGPVLVCAPSNIAVDQLTEKIHQTGLKVVRLCAKSREAIDSPVSFLALHNQIRNMDSMPELQKLQQLKDETGELSSADEKRYRALKRTAERELLMNADVICCTCVGAGDPRLAKMQFRSILIDESTQATEPECMVPVVLGAKQLILVGDHCQLGPVVMCKKAAKAGLSQSLFERLVVLGIRPIRLQVQYRMHPALSAFPSNIFYEGSLQNGVTAADRVKKGFDFQWPQPDKPMFFYVTQGQEEIASSGTSYLNRTEAANVEKITTKLLKAGAKPDQIGIITPYEGQRSYLVQYMQFSGSLHTKLYQEVEIASVDAFQGREKDFIILSCVRANEHQGIGFLNDPRRLNVALTRARYGVIIVGNPKALSKQPLWNHLLNYYKEQKVLVEGPLNNLRESLMQFSKPRKLVNTINPGARFMTTAMYDAREAIIPGSVYDRSSQGRPSSMYFQTHDQIGMISAGPSHVAAMNIPIPFNLVMPPMPPPGYFGQANGPAAGRGTPKGKTGRGGRQKNRFGLPGPSQTNLPNSQASQDVASQPFSQGALTQGYISMSQPSQMSQPGLSQPELSQDSYLGDEFKSQIDVALSQDSTYQGERAYQHGGVTGLSQY

These molecules were tested against T1, Flag-Arc WT (Flag-hArc/Arg3.1) (human) (UniProt Q7LC44) (assay: affinity purification with mass spectrometry).
T1 sequence: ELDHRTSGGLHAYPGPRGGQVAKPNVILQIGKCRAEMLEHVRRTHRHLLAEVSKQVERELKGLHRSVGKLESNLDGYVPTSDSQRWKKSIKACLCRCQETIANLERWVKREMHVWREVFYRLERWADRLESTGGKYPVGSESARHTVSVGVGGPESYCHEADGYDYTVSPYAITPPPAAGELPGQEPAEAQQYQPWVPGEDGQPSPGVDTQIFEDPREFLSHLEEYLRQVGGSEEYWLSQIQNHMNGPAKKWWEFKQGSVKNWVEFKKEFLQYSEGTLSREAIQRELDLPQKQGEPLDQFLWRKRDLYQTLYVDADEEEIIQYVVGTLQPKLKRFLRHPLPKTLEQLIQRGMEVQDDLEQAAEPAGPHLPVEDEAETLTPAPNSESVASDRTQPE

binding, binds:
Drebrin (from UniProt Q16643 1-649)
Hsp27, endogenous in HEK293T cells (from UniProt P04792 1-205)
B1

No constants are given. Whether binding was seen depends on the method and setting. In cells and extracts the contact can be indirect. These calls come from enrichment with a bait or labelling near it, and not all partners need be listed. Sequences can lack the tags named with a protein.
